This note sets out measurements from patent US20230052256A1.

By UniProt entry, the sequences of proteins in these tests, tags left out. Where a name states a change or a piece, a line headed by the entry shows the natural chain unless it says otherwise. Chains listed by the source or under a name are the forms on record and can include a tag or linker.
recombinant human FGFR1b-Fc (R&D Systems) (P11362, form named): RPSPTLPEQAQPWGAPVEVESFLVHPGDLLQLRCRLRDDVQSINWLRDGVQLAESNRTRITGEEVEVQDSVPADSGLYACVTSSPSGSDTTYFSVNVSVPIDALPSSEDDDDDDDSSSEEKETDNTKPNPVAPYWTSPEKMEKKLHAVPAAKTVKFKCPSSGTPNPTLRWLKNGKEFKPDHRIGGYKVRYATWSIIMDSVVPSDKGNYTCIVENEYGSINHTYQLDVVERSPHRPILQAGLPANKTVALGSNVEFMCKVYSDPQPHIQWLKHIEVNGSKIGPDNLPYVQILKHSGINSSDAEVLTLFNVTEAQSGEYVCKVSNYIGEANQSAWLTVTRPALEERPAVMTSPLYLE

The target of assay [1] is recombinant human FGFR1b-Fc (R&D Systems) (human) (UniProt P11362). As to the kind of experiment: ELISA on HuFGFR1b.
Assay [2] shares this target. As to the kind of experiment: ELISA on FGFR-Fc proteins.

Results are given in words; binding and its absence hold for the method and conditions named. Some binding calls cover weakened binding; strength is not graded here.

B1: Ab 26 (mouse monoclonal antibody) (antibody, V domains shown)
VH: DVHLQESGPGLVKPSQSLSLTCSVTGYSITSGYYWNWIRQFPGNKLEWMGYITYDGSNNYNPSLKNRLSITRDTSKNQFFLQLSSLTTEDTATYFCARVYYYGSGNFDVWGTGTTVTVSS
VL: SIVMTQTPKILLVSAGDRVTITCKASQSVSNDVAWYQQKPGQSPKLLIYYASNRYTGVPDRFTGSGYGTDFTFTISTVQAEDLAVYFCHQDHTSPFTFGSGTKLEIK
Take B1: the binding entry in assay [1] and in assay [2] was “binds” throughout.
